Paper doi:10.1101/2024.07.10.601956
No constants are given. Whether binding was seen depends on the method and setting. Binding seen in cells or lysates may run through a third protein. Some results given as binding are weak or reduced against the parent protein; the word gives no strength. Where a sequence is shown, tags or fusion partners need not be part of it.

B1: Mitoregulin (Mtln), endogenous, human A549 cells (protein, UniProt Q8NCU8 1-56)
chain: MADVSERTLQLSVLVAFASGVLLGWQANRLRRRYLDWRKRRLQDKLAATQKKLDLA
B2: Native (untagged) wildtype human Mtln expressed from a plasmid (protein, UniProt Q8NCU8 1-56)
chain: B1 chain

Target: T1, N-terminal V5 epitope-tagged human Mtln (nV5-Mtln) (human) (UniProt Q8NCU8)
T1 sequence: B1 chain
Experiment: co-IP

Binder	binding
B1	binds
B2	binds
